{"source": "PubChem BioAssay AID1259254 (NCATS, 2017)", "assay": "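Genome-wide screen for genes that prevent DNA re-replication in cancer cells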 (primary screen)", "cell system": "human HCT116 colorectal cancer cells", "knock-down reagent": "single siRNA against human genes", "duration": "3 days", "measured": "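Imaged Hoechst DNA stain sorts each cell into a cycle phase by DNA amount; per plate, G2 fraction set to 0% for non-targeting and 100% for GMNN siRNA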", "scale": "G2 robust z-score and G2 cells, % of GMNN control: higher = more G2 cells, more excess DNA replication", "hit rule": "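An siRNA counts as active if its G2 robust z-score lies at least 5 MADs above the screen median; here such calls match roughly 38% of GMNN control or more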", "note": "The whole screen tested about 59,000 reagents; this is a random part of them. About 1,550 of all reagents (2.6%) were called active. 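G2 share is only a proxy for re-replication; each gene was hit by three separate siRNAs, and active genes were retested.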 A number with no mark means an inactive call. Reagents against one gene are numbered here. Further read-outs or replicates are left out here. Not stated in the record: the amount of reagent."}
{"Target gene": "ZMAT1 (zinc finger matrin-type 1)", "reagent": 1, "G2 robust z-score": -0.78, "G2 cells, % of GMNN control": -2.52}
{"Target gene": "ZMAT1 (zinc finger matrin-type 1)", "reagent": 2, "G2 robust z-score": -0.173, "G2 cells, % of GMNN control": 1.75}
{"Target gene": "ZMAT1 (zinc finger matrin-type 1)", "reagent": 3, "G2 robust z-score": 0.532, "G2 cells, % of GMNN control": 6.71}
{"Target gene": "DGKG (diacylglycerol kinase gamma)", "reagent": 1, "G2 robust z-score": -0.877, "G2 cells, % of GMNN control": -3.2}
{"Target gene": "DGKG (diacylglycerol kinase gamma)", "reagent": 2, "G2 robust z-score": -1.13, "G2 cells, % of GMNN control": -4.95}
{"Target gene": "DGKG (diacylglycerol kinase gamma)", "reagent": 3, "G2 robust z-score": -1.02, "G2 cells, % of GMNN control": -4.24}

Part of the list above, limited to “G2 cells, % of GMNN control”.
ZMAT1 (zinc finger matrin-type 1) #3 = 6.71
DGKG (diacylglycerol kinase gamma) #1 = -3.2

The results go on:
{"Target gene": "GCNT2 (glucosaminyl (N-acetyl) transferase 2 (I blood group))", "reagent": 1, "G2 robust z-score": 0.342, "G2 cells, % of GMNN control": 5.38}
{"Target gene": "GCNT2 (glucosaminyl (N-acetyl) transferase 2 (I blood group))", "reagent": 2, "G2 robust z-score": -0.984, "G2 cells, % of GMNN control": -3.95}
{"Target gene": "GCNT2 (glucosaminyl (N-acetyl) transferase 2 (I blood group))", "reagent": 3, "G2 robust z-score": -0.921, "G2 cells, % of GMNN control": -3.51}
{"Target gene": "VPS33B (VPS33B late endosome and lysosome associated)", "reagent": 1, "G2 robust z-score": 0.835, "G2 cells, % of GMNN control": 8.84}
{"Target gene": "VPS33B (VPS33B late endosome and lysosome associated)", "reagent": 2, "G2 robust z-score": 0.0312, "G2 cells, % of GMNN control": 3.19}
{"Target gene": "VPS33B (VPS33B late endosome and lysosome associated)", "reagent": 3, "G2 robust z-score": -0.368, "G2 cells, % of GMNN control": 0.379}
